Results taken from patent US20110142830A1.
These are yes or no findings as the source states them, for the method shown. In cells and extracts the contact can be indirect. Some results given as binding are weak or reduced against the parent protein; the word gives no strength.

Protein sequences, listed by entry. Tags and fused reporters are not part of them. Lines headed by an entry give the natural chain unless they say otherwise; changes in a name come on top.
UniProt P04629: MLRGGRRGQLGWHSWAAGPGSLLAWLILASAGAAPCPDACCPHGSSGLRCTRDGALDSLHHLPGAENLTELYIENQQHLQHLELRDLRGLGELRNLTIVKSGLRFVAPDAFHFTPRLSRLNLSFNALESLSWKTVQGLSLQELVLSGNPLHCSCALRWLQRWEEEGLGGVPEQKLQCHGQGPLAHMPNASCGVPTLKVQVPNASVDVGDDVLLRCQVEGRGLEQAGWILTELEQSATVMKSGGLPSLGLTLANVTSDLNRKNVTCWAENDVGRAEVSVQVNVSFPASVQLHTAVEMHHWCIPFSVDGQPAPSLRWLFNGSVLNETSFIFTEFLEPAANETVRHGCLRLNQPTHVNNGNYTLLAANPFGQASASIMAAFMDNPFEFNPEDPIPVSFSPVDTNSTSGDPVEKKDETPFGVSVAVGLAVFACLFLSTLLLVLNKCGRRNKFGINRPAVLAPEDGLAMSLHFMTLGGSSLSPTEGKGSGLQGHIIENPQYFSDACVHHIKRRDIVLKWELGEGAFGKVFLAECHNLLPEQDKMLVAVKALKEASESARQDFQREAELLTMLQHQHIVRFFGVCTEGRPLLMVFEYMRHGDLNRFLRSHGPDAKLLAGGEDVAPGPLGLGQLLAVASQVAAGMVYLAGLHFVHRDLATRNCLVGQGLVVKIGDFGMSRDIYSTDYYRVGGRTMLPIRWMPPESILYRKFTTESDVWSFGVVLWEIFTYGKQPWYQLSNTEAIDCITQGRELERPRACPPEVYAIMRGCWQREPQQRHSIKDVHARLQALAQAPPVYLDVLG
UniProt Q8NER1: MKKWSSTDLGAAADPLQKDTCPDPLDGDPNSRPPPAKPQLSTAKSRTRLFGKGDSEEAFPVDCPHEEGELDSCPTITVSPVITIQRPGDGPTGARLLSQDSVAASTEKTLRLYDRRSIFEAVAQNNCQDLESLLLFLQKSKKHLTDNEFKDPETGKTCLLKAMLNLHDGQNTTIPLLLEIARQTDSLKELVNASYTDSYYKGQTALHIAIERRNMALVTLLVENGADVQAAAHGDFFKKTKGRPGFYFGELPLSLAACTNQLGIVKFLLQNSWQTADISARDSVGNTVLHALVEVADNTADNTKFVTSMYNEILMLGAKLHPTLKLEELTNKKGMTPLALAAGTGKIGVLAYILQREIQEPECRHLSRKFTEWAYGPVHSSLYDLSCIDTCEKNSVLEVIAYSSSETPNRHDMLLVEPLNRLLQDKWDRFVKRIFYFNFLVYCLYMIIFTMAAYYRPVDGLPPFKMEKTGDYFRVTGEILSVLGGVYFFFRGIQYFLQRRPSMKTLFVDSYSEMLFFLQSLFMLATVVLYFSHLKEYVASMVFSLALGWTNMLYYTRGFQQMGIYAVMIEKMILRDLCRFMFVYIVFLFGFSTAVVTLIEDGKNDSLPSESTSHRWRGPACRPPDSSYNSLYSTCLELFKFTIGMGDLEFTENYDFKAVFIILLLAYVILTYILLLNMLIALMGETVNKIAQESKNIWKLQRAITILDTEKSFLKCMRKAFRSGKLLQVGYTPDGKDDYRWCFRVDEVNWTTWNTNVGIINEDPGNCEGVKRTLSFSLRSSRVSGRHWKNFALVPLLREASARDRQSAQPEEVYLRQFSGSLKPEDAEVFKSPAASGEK
UniProt Q99523: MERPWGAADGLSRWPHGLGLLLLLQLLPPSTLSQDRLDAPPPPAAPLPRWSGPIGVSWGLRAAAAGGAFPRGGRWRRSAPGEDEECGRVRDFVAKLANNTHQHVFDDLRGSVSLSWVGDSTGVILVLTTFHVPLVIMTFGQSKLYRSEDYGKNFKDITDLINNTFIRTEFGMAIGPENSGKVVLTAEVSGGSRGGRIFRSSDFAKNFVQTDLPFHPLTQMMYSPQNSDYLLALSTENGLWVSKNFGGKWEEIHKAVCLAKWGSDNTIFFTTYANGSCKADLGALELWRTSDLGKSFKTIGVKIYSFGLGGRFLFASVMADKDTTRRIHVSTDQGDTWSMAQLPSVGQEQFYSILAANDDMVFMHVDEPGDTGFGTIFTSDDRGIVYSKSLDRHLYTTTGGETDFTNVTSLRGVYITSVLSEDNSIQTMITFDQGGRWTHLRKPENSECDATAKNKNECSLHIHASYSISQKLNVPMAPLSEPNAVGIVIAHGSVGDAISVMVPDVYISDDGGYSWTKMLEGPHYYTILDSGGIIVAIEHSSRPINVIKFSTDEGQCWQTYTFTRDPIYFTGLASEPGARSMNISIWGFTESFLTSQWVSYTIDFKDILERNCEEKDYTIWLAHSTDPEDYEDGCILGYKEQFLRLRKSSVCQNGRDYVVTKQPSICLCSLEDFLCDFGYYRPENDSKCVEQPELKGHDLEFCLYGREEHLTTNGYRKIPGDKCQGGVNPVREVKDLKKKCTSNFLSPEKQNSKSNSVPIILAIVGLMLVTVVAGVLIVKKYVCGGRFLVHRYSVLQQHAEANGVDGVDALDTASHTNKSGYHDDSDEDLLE

Tests used:
[1] = molecular target: TrkA (Homo sapiens (Human)) (UniProt P04629); test: co-immunoprecipitation (anti-TrkA) from DSP-crosslinked lysates of stably transfected HEK293 cells, western blot
[2] = molecular target: TrpV1 (Homo sapiens (Human)) (UniProt Q8NER1); test: co-immunoprecipitation, double transfected HEK293 cells (FIG. 2B)
[3] = molecular target: TrkA (Homo sapiens (Human)) (UniProt P04629); test: co-immunoprecipitation, double transfected HEK293 cells (FIG. 2A)
[4] = molecular target: TrpV1 (Homo sapiens (Human)) (UniProt Q8NER1); test: co-immunoprecipitation (anti-TrpV1) from DSP-crosslinked lysates of stably transfected HEK293 cells, western blot

Measured: binding

Sortilin (from UniProt Q99523 78-831) (receptor)
binds: all assays above

TrkA (from UniProt P04629 33-796) (receptor)
binds: [2] | [4]
